Measured values taken from US20250134905A1, “USE OF SMALL-MOLECULE COMPOUND HOMOHARRINGTONINE IN MANUFACTURING DRUG FOR TREATING ACQUIRED IMMUNE DEFICIENCY SYNDROME” (Hangzhou City University, priority 2022, published 2025).
Entries after “also recorded” stand apart in the source; their conditions may differ. Like-named read-outs stand apart in the source and are kept apart here. At least one structure is not confirmed: it was looked up by name or label, or the drawing left a doubt.

Assays:
Gag-Pol fusion protein = assay: Western blot of Gag-Pol fusion protein in cells transfected with pNL4-3 envelope mutant plasmid; conditions: 12 hours, FIG. 8
−1PRF sequence of RSV = assay type: cell-based
−1PRF sequence of SIV = assay type: cell-based
[1] = system: −1PRF sequence of SARS-COVID19; assay type: cell-based
−1PRF sequence of MMTV = assay type: cell-based
HIV-1 −1PRF [2] = conditions: stably transfected 293 cells
HIV-1 −1PRF [3] = conditions: stably transfected Hela cells, treated 6 hours, vs control group, FIG. 3

Compound: COC(=O)C[C@](O)(CCCC(C)(C)O)C(=O)O[C@@H]1C(OC)=C[C@]23CCCN2CCc2cc4c(cc2[C@H]13)OCO4 [homoharringtonine]
- content of Gag-Pol fusion protein in cells (Gag-Pol fusion protein; 5 nM): decreased significantly
- content of Gag-Pol fusion protein in cells (Gag-Pol fusion protein; 20 nM): basically undetectable
- −1PRF efficiency (ratio of Renilla to Luciferase) (−1PRF sequence of RSV): reduce; also recorded: decreases significantly
- −1PRF efficiency (ratio of Renilla to Luciferase) (−1PRF sequence of SIV): reduce; also recorded: decreases significantly
- −1PRF efficiency (ratio of Renilla to Luciferase) [1]: decreases significantly
- −1PRF efficiency (ratio of Renilla to Luciferase) (−1PRF sequence of MMTV): reduce; also recorded: decreases significantly
- −1PRF efficiency (ratio of Renilla to Luciferase), comparison of leukemia drugs (HIV-1 −1PRF [2]; FIG. 6): significantly decreased
- Fluc/Rluc value (−1PRF efficiency) (HIV-1 −1PRF [2]; treated 6 hours, vs control group, FIG. 3): significantly reduced
- Fluc/Rluc value (−1PRF efficiency) (HIV-1 −1PRF [3]): significantly reduced
